Measurements taken from patent US20160090556A1, “PRODUCTS COMPRISING MALODOR REDUCTION MATERIALS” (The Procter & Gamble Company, priority 2014, published 2016).

Assay: Melamine formaldehyde PMC leakage
[1] = class code letter within Comment Code
[2] = code J of the Comment Code column, Table 1

SMILES	Melamine formaldehyde PMC leakage (Comment Code J) [1]	Comment Code: Melamine formaldehyde PMC leakage (code letter J)	Melamine formaldehyde PMC leakage (Comment Code J)	further results
O=C1CCCCCCC/C=C/CCCCCCC1 [Material 501]	J (Melamine formaldehyde PMC leakage less than or equal to 5%)	J (Melamine formaldehyde PMC leakage less than or equal to 5%)	–	–
C1CC2C3CC(C2C1)C1(CCCO1)C3 (stereo not drawn) [Material 1137]	–	J (Melamine formaldehyde PMC leakage less than or equal to 5%)	–	Comment Code: Melamine formaldehyde PMC leakage [2]: J (Melamine formaldehyde PMC leakage less than or equal to 5%)
CCCCCCCCCCCC(=O)OC(C)C [Material 197]	J (Melamine formaldehyde PMC leakage less than or equal to 5%)	–	–	–
C=C1C2CCC(C)(OCC)C1CCC2(C)C (stereo not drawn) [Material 606]	–	–	J (Melamine formaldehyde PMC leakage less than or equal to 5%)	–
CC1=CCC(C(C)CC2CCCC2=O)CC1 (stereo not drawn) [Material 69]	J (Melamine formaldehyde PMC leakage less than or equal to 5%)	–	–	–
CC1CCC2C(C2(C)C)C12COC(C)(C)OC2 (stereo not drawn) [Material 1036]	–	–	J (Melamine formaldehyde PMC leakage less than or equal to 5%)	–
CC(C)CC(=O)OCc1ccccc1 [Material 645]	–	J (Melamine formaldehyde PMC leakage less than or equal to 5%)	–	–
C=C1[C@H]2CC[C@H](CO)[C@@]23CC[C@H](C3)C1(C)C [Material 183]	J (Melamine formaldehyde PMC leakage less than or equal to 5%)	J (Melamine formaldehyde PMC leakage less than or equal to 5%)	–	–
C=CCc1ccc(OC(C)=O)c(OC)c1 [Material 374]	J (Melamine formaldehyde PMC leakage less than or equal to 5%)	–	–	–
CCC(=O)C=CC1C(C)=CCCC1(C)C (stereo not drawn) [Material 700]	–	–	J (Melamine formaldehyde PMC leakage less than or equal to 5%)	–
CC(C)OCCc1ccccc1 [Material 950]	–	–	J (Melamine formaldehyde PMC leakage less than or equal to 5%)	–
CCCOC(C)OCCc1ccccc1 (stereo not drawn) [Material 766]	–	–	J (Melamine formaldehyde PMC leakage less than or equal to 5%)	–
N#CC(=C1CCCCC1)c1ccccc1 [Material 945]	–	–	J (Melamine formaldehyde PMC leakage less than or equal to 5%)	–
CCOC(=O)CC(O)(CC(=O)OCC)C(=O)OCC [Material 1091]	–	–	J (Melamine formaldehyde PMC leakage less than or equal to 5%)	–
CCCCCC(=O)Oc1ccc(C)cc1 [Material 939]	–	–	J (Melamine formaldehyde PMC leakage less than or equal to 5%)	–
CC1CC=CCCCCCCCC(=O)OCC1 (stereo not drawn) [Material 52]	J (Melamine formaldehyde PMC leakage less than or equal to 5%)	–	–	–
CCCCCCCCCCCC(=O)O [Material 176]	J (Melamine formaldehyde PMC leakage less than or equal to 5%)	–	–	–
C=C1CCC2C(C3C(C)CCC13)C2(C)C (stereo not drawn) [Material 750]	–	J (Melamine formaldehyde PMC leakage less than or equal to 5%)	J (Melamine formaldehyde PMC leakage less than or equal to 5%)	–
O=C1CCCCCCCCCCCCCC1 [Material 480]	J (Melamine formaldehyde PMC leakage less than or equal to 5%)	–	–	–
CCCCCCC1C(=O)CCC1C(=O)OC (stereo not drawn) [Material 450]	J (Melamine formaldehyde PMC leakage less than or equal to 5%)	–	–	–
CCCCCCCCC=CC=O [Material 828]	–	–	J (Melamine formaldehyde PMC leakage less than or equal to 5%)	–
CC1CCCCCCCCCCCCC(=O)C1 (stereo not drawn) [Material 206]	J (Melamine formaldehyde PMC leakage less than or equal to 5%)	J (Melamine formaldehyde PMC leakage less than or equal to 5%)	–	–
CCCCCCCCOC(C)=O [Material 29]	J (Melamine formaldehyde PMC leakage less than or equal to 5%)	–	–	–
CCCCCCC(CO)C(C)=O (stereo not drawn) [Material 106]	J (Melamine formaldehyde PMC leakage less than or equal to 5%)	–	–	–
CCc1ccccc1CC(C)(C)C=O [Material 356]	J (Melamine formaldehyde PMC leakage less than or equal to 5%)	–	–	–
CCCCCCCCCCCCCC#N [Material 38]	J (Melamine formaldehyde PMC leakage less than or equal to 5%)	–	–	–

SMILES	Melamine formaldehyde PMC leakage (Comment Code J) [1]	Comment Code: Melamine formaldehyde PMC leakage (code letter J)	Melamine formaldehyde PMC leakage (Comment Code J)	further results
C=C[C@](C)(O)CC[C@@H]1[C@@]2(C)CCCC(C)(C)[C@@H]2CC[C@@]1(C)O [Material 1028]	–	J (Melamine formaldehyde PMC leakage less than or equal to 5%)	J (Melamine formaldehyde PMC leakage less than or equal to 5%)	–
O=C(c1ccccc1)C(O)c1ccccc1 (stereo not drawn) [Material 923]	–	–	J (Melamine formaldehyde PMC leakage less than or equal to 5%)	–
COc1cc(C=O)ccc1OC(=O)C(C)C [Material 1111]	–	–	J (Melamine formaldehyde PMC leakage less than or equal to 5%)	–
CC(=O)OC(C)(C)C1CC=C(C)CC1 (stereo not drawn) [Material 687]	–	J (Melamine formaldehyde PMC leakage less than or equal to 5%)	–	–
CCC(=O)OC(C)(C)C1CC=C(C)CC1 (stereo not drawn) [Material 686]	–	–	J (Melamine formaldehyde PMC leakage less than or equal to 5%)	–
C/C=C/c1cc(OC)c(OC)cc1OC [Material 924]	–	–	J (Melamine formaldehyde PMC leakage less than or equal to 5%)	–
CCC(=O)OC1CC2C3C=CCC3C1C2(C)C (stereo not drawn) [Material 343]	J (Melamine formaldehyde PMC leakage less than or equal to 5%)	J (Melamine formaldehyde PMC leakage less than or equal to 5%)	–	–
CC(=O)OC1CC2C3C=CCC3C1C2(C)C (stereo not drawn) [Material 360]	J (Melamine formaldehyde PMC leakage less than or equal to 5%)	J (Melamine formaldehyde PMC leakage less than or equal to 5%)	–	–
O=C1CCCCCCCCCCCC(=O)OCCO1 [Material 378]	J (Melamine formaldehyde PMC leakage less than or equal to 5%)	–	–	–
CC(CC=O)CCc1ccccc1 (stereo not drawn) [Material 807]	–	–	J (Melamine formaldehyde PMC leakage less than or equal to 5%)	–
CC(C)=CCCC(C)C12CC=C(C)C1C2 (stereo not drawn) [Material 926]	–	–	J (Melamine formaldehyde PMC leakage less than or equal to 5%)	–
C=C(C)C(=O)OCCc1ccccc1 [Material 971]	–	J (Melamine formaldehyde PMC leakage less than or equal to 5%)	–	–
CC(=O)OC12CCCC(C)(CCC3C1CC3(C)C)C2 (stereo not drawn) [Material 573]	–	J (Melamine formaldehyde PMC leakage less than or equal to 5%)	J (Melamine formaldehyde PMC leakage less than or equal to 5%)	–
CCC(C)C(=O)N(C)c1ccccc1 (stereo not drawn) [Material 314]	–	J (Melamine formaldehyde PMC leakage less than or equal to 5%)	–	–
CC1CC=CCCCCCCCC(=O)OCC1 (stereo not drawn) [Material 1099]	–	–	J (Melamine formaldehyde PMC leakage less than or equal to 5%)	–
Cc1ccc2c(c1)CC(C)(CO)C2 (stereo not drawn) [Material 161]	J (Melamine formaldehyde PMC leakage less than or equal to 5%)	–	–	–
CC(C=O)Cc1cccc(C(C)(C)C)c1 (stereo not drawn) [Material 134]	J (Melamine formaldehyde PMC leakage less than or equal to 5%)	–	–	–
CC(=O)[C@@]1(C)CC2=C(CCCC2(C)C)C[C@@H]1C [Material 215]	J (Melamine formaldehyde PMC leakage less than or equal to 5%)	J (Melamine formaldehyde PMC leakage less than or equal to 5%)	–	–
CC1OC(C)C2Cc3ccccc3C2O1 (stereo not drawn) [Material 141]	J (Melamine formaldehyde PMC leakage less than or equal to 5%)	J (Melamine formaldehyde PMC leakage less than or equal to 5%)	–	–
CCC(=O)OCC(C)(C)OC(C)C1CCCC(C)(C)C1 (stereo not drawn) [Material 285]	J (Melamine formaldehyde PMC leakage less than or equal to 5%)	–	–	–
CC1(C)CCc2ccc(CCC=O)cc21 [Material 260]	J (Melamine formaldehyde PMC leakage less than or equal to 5%)	J (Melamine formaldehyde PMC leakage less than or equal to 5%)	–	–
COC1CC2CC1C1CC(C=O)CC21 (stereo not drawn) [Material 1027]	–	J (Melamine formaldehyde PMC leakage less than or equal to 5%)	J (Melamine formaldehyde PMC leakage less than or equal to 5%)	–
CC/C=C\CCOC(=O)c1ccccc1 [Material 541]	J (Melamine formaldehyde PMC leakage less than or equal to 5%)	–	–	–
CCCCCCCCCCCCCO [Material 1090]	–	–	J (Melamine formaldehyde PMC leakage less than or equal to 5%)	–
COC(=O)c1ccccc1/N=C\C1CCC(C)=CC1C (stereo not drawn) [Material 1131]	–	J (Melamine formaldehyde PMC leakage less than or equal to 5%)	–	Comment Code: Melamine formaldehyde PMC leakage [2]: J (Melamine formaldehyde PMC leakage less than or equal to 5%)
CC(C)=CCC/C(C)=C\COC=O [Material 59]	–	J (Melamine formaldehyde PMC leakage less than or equal to 5%)	–	–

Like-named read-outs stand apart in the source and are kept apart here.
